Experimental data published in PubChem BioAssay AID248 (DTP/NCI, 2004).
The list does not hold the whole screen: it is rich in T/C values a quarter to a half above the control, in often repeated tests (any T/C) and in doses without a T/C. Further doses and runs are listed elsewhere. T/C gives the treated animals as a percentage of the vehicle group. Some entries give survivors of the animals treated and no T/C: the source holds a T/C of zero for them, seemingly a mark for toxic or unscored doses. Some survivor counts are full or nearly so, which does not show that the dose was tolerated: survival well below the control is almost never listed, so the zero probably covers shortened survival too. Counts of survivors are from the toxicity check (mostly the fifth day) where no day follows; animals may have died later. Schedules are NCI's codes, taken here to give the interval after Q, in days (D) or hours (H), and the number of doses after X. Some schedule codes hold Z or #, which are not explained here. For survival time, the PubChem record calls one and a half times the control and up active, and a quarter to a half above the control has no call in these data; cut-offs in other NCI protocols can differ. Some T/C values are followed by the survivors on the day toxicity was checked, most often the fifth; where none is given, no animal had died by that day. Some entries hold several experiments; their values stand side by side, smallest first. Marks such as (2×) give the number of equal values in this list.

Tested on: L1210 leukemia ip in BDF1 mice, survival T/C
Assay: NCI In Vivo Anticancer Drug Screen. Data for tumor model L1210 Leukemia (intraperitoneal) in B6D2F1 (BDF1) mice
Settings: T/C endpoint: mean survival time, higher T/C = longer survival

Compound: CN(Cc1cnc2nc(N)nc(N)c2n1)c1c(Cl)cc(C(=O)NC(CCC(=O)O)C(=O)O)cc1Cl (stereo not given)
- T/C (dose: 0.25 mg/kg/injection, schedule: Q01DX Z (ip), vehicle: saline): 136 % of control
- T/C (dose: 0.8 mg/kg/injection, schedule: Q03HX024 (ip), vehicle: alkali diluted with saline): 135 % of control [9 of 10 alive]
- T/C (dose: 1.0 mg/kg/injection, schedule: Q01DX Z (ip), vehicle: saline): 148 % of control
- survivor count (dose: 1.0 mg/kg/injection, schedule: Q01DX Z (oral), vehicle: alkali diluted with saline): 6 of 7
- T/C (dose: 1.25 mg/kg/injection, schedule: Q03HX008 (ip), vehicle: carboxymethylcellulose (CMC)): 125 % of control [8 of 10 alive]
- T/C (dose: 1.5 mg/kg/injection, schedule: Q01DX Z (ip), vehicle: carboxymethylcellulose (CMC)): 147 % of control
- T/C (dose: 1.56 mg/kg/injection, schedule: Q03HX024 (ip), vehicle: carboxymethylcellulose (CMC)): 139 % of control [9 of 10 alive]
- T/C (dose: 3.0 mg/kg/injection, schedule: Q01DX Z (ip), vehicle: saline): 127 % of control
- survivor count (dose: 3.13 mg/kg/injection, schedule: Q03HX024 (ip), vehicle: carboxymethylcellulose (CMC)): 5 of 10
- T/C (dose: 3.75 mg/kg/injection, schedule: Q03HX008 (ip), vehicle: carboxymethylcellulose (CMC)): 128 % of control
- T/C (dose: 5.0 mg/kg/injection, schedule: Q#A X Z (ip), vehicle: olive oil, sesame oil, peanut oil): 141 % of control [5 of 6 alive]
- T/C (dose: 7.5 mg/kg/injection, schedule: Q03HX008 (ip), vehicle: carboxymethylcellulose (CMC)): 132 % of control [7 of 10 alive]
- T/C (dose: 9.0 mg/kg/injection, schedule: Q01DX Z (ip), vehicle: water): 147 % of control
- T/C (dose: 10.0 mg/kg/injection, schedule: Q01DX005 (ip), vehicle: carboxymethylcellulose (CMC)): 131 % of control
- T/C (dose: 10.0 mg/kg/injection, schedule: Q01DX005 (ip), vehicle: other): 130 % of control
- T/C (dose: 10.0 mg/kg/injection, schedule: Q01DX007 (ip), vehicle: other): 148 % of control
- T/C (dose: 10.0 mg/kg/injection, schedule: Q01DX007 (sc), vehicle: other): 126 % of control
- T/C (dose: 10.0 mg/kg/injection, schedule: Q01DX009 (ip), vehicle: carboxymethylcellulose (CMC)): 130 % of control
- T/C (dose: 10.0 mg/kg/injection, schedule: Q01DX009 (ip), vehicle: saline): 140, 146, 167, 177 % of control
- T/C (dose: 10.0 mg/kg/injection, schedule: Q01DX009 (sc), vehicle: carboxymethylcellulose (CMC)): 126 % of control
- survivor count (dose: 10.0 mg/kg/injection, schedule: Q#A X Z (ip), vehicle: methylcellulose (MC)): 6 of 6
- survivor count (dose: 12.8 mg/kg/injection, schedule: Q03HX024 (ip), vehicle: alkali diluted with saline): 8 of 10
- survivor count (dose: 15.0 mg/kg/injection, schedule: Q03HX008 (ip), vehicle: carboxymethylcellulose (CMC)): 6 of 10
- T/C (dose: 20.0 mg/kg/injection, schedule: Q01DX005 (ip), vehicle: carboxymethylcellulose (CMC)): 134 % of control
- T/C (dose: 20.0 mg/kg/injection, schedule: Q01DX005 (ip), vehicle: other): 134 % of control
- T/C (dose: 20.0 mg/kg/injection, schedule: Q01DX007 (sc), vehicle: other): 128 % of control
- T/C (dose: 20.0 mg/kg/injection, schedule: Q01DX009 (ip), vehicle: saline): 154 (2×), 162, 173 % of control
- T/C (dose: 20.0 mg/kg/injection, schedule: Q01DX009 (sc), vehicle: carboxymethylcellulose (CMC)): 136 % of control
- T/C (dose: 30.0 mg/kg/injection, schedule: Q## X008 (ip), vehicle: alkali diluted with saline): 126 % of control [8 of 10 alive]
- T/C (dose: 30.0 mg/kg/injection, schedule: Q#A X Z (ip), vehicle: olive oil, sesame oil, peanut oil): 131 % of control
- T/C (dose: 40.0 mg/kg/injection, schedule: Q01DX005 (ip), vehicle: carboxymethylcellulose (CMC)): 135 % of control
- T/C (dose: 40.0 mg/kg/injection, schedule: Q01DX005 (ip), vehicle: other): 134 % of control
- T/C (dose: 40.0 mg/kg/injection, schedule: Q01DX006 (iv), vehicle: alkali diluted with saline): 141 % of control [6 of 7 alive]
- T/C (dose: 40.0 mg/kg/injection, schedule: Q01DX007 (sc), vehicle: other): 135 % of control
- T/C (dose: 40.0 mg/kg/injection, schedule: Q01DX009 (ip), vehicle: saline): 164 (3×) and 173 % of control
- survivor count (dose: 40.0 mg/kg/injection, schedule: Q#A X Z (ip), vehicle: methylcellulose (MC)): 5 of 6
- T/C (dose: 45.0 mg/kg/injection, schedule: Q01DX Z (ip), vehicle: carboxymethylcellulose (CMC)): 127 % of control
- T/C (dose: 50.0 mg/kg/injection, schedule: Q04DX003 (ip), vehicle: carboxymethylcellulose (CMC)): 129 % of control
- T/C (dose: 60.0 mg/kg/injection, schedule: Q03DX Z (ip), vehicle: methylcellulose (MC)): 129 % of control
- T/C (dose: 60.0 mg/kg/injection, schedule: Q## X008 (ip), vehicle: alkali diluted with saline): 129 % of control
- T/C (dose: 80.0 mg/kg/injection, schedule: Q01DX005 (ip), vehicle: other): 145 % of control
- T/C (dose: 80.0 mg/kg/injection, schedule: Q01DX009 (ip), vehicle: saline): 186, 197, 205, 230 % of control
- survivor count (dose: 80.0 mg/kg/injection, schedule: Q01DX Z (ip), vehicle: methylcellulose (MC)): 4 of 6
- survivor count (dose: 90.0 mg/kg/injection, schedule: Q01DX Z (ip), vehicle: carboxymethylcellulose (CMC)): 5 of 6
- T/C (dose: 100.0 mg/kg/injection, schedule: Q04DX003 (ip), vehicle: carboxymethylcellulose (CMC)): 145 % of control
- T/C (dose: 100.0 mg/kg/injection, schedule: Q## X003 (ip), vehicle: other): 130 % of control
- T/C (dose: 100.0 mg/kg/injection, schedule: Q## X016 (ip), vehicle: other): 137 % of control
- T/C (dose: 120.0 mg/kg/injection, schedule: Q01DX001 (ip), vehicle: other): 126 % of control
- survivor count (dose: 120.0 mg/kg/injection, schedule: Q## X008 (ip), vehicle: alkali diluted with saline): 6 of 10
- T/C (dose: 140.0 mg/kg/injection, schedule: Q01DX001 (ip), vehicle: methylcellulose (MC)): 129 % of control
- T/C (dose: 160.0 mg/kg/injection, schedule: Q01DX005 (ip), vehicle: other): 134 % of control
- T/C (dose: 160.0 mg/kg/injection, schedule: Q01DX007 (ip), vehicle: other): 128 % of control
- T/C (dose: 160.0 mg/kg/injection, schedule: Q01DX007 (sc), vehicle: other): 129 % of control
- T/C (dose: 160.0 mg/kg/injection, schedule: Q01DX009 (ip), vehicle: saline): 86, 100, 195, 234 % of control
- survivor count (dose: 160.0 mg/kg/injection, schedule: Q01DX Z (iv), vehicle: alkali diluted with saline): 7 of 7
- survivor count (dose: 160.0 mg/kg/injection, schedule: Q01DX Z (oral), vehicle: alkali diluted with saline): 4 of 7
- survivor count (dose: 180.0 mg/kg/injection, schedule: Q01DX Z (ip), vehicle: carboxymethylcellulose (CMC)): 2 of 6
- T/C (dose: 200.0 mg/kg/injection, schedule: Q## X003 (ip), vehicle: other): 145 % of control
- T/C (dose: 240.0 mg/kg/injection, schedule: Q01DX001 (ip), vehicle: carboxymethylcellulose (CMC)): 135 % of control
- T/C (dose: 280.0 mg/kg/injection, schedule: Q01DX001 (ip), vehicle: methylcellulose (MC)): 129 and 144 % of control [5 of 6 alive]
- T/C (dose: 280.0 mg/kg/injection, schedule: Q07DX Z (ip), vehicle: methylcellulose (MC)): 139 % of control
- survivor count (dose: 320.0 mg/kg/injection, schedule: Q01DX005 (ip), vehicle: other): 10 of 10
- survivor count (dose: 320.0 mg/kg/injection, schedule: Q01DX007 (ip), vehicle: other): 9 of 10
- survivor count (dose: 320.0 mg/kg/injection, schedule: Q01DX007 (sc), vehicle: other): 10 of 10
- survivor count (dose: 320.0 mg/kg/injection, schedule: Q01DX Z (iv), vehicle: alkali diluted with saline): 6 of 7
- survivor count (dose: 320.0 mg/kg/injection, schedule: Q01DX Z (oral), vehicle: alkali diluted with saline): 6 of 7
- T/C (dose: 400.0 mg/kg/injection, schedule: Q01DX001 (ip), vehicle: olive oil, sesame oil, peanut oil): 125 % of control
- T/C (dose: 400.0 mg/kg/injection, schedule: Q01DX001 (sc), vehicle: carboxymethylcellulose (CMC)): 126 % of control
- T/C (dose: 400.0 mg/kg/injection, schedule: Q## X016 (ip), vehicle: other): 148 % of control
- T/C (dose: 480.0 mg/kg/injection, schedule: Q01DX001 (ip), vehicle: other): 125 % of control
- T/C (dose: 480.0 mg/kg/injection, schedule: Q## X008 (ip), vehicle: other): 128 % of control
- T/C (dose: 560.0 mg/kg/injection, schedule: Q01DX001 (ip), vehicle: methylcellulose (MC)): 133 % of control
- T/C (dose: 560.0 mg/kg/injection, schedule: Q07DX Z (ip), vehicle: methylcellulose (MC)): 145 % of control
- T/C (dose: 647.0 mg/kg/injection, schedule: Q01DX001 (ip), vehicle: carboxymethylcellulose (CMC)): 128 % of control
- T/C (dose: 800.0 mg/kg/injection, schedule: Q01DX001 (sc), vehicle: carboxymethylcellulose (CMC)): 132 % of control [9 of 10 alive]
- T/C (dose: 800.0 mg/kg/injection, schedule: Q01DX001 (sc), vehicle: other): 135 % of control
- T/C (dose: 875.0 mg/kg/injection, schedule: Q01DX001 (ip), vehicle: alkali diluted with saline): 142 % of control
- T/C (dose: 960.0 mg/kg/injection, schedule: Q01DX001 (ip), vehicle: alkali diluted with saline): 130 % of control
- T/C (dose: 960.0 mg/kg/injection, schedule: Q01DX001 (ip), vehicle: other): 134 % of control
- T/C (dose: 960.0 mg/kg/injection, schedule: Q## X008 (ip), vehicle: other): 147 % of control
- T/C (dose: 1000.0 mg/kg/injection, schedule: Q01DX001 (ip), vehicle: alkali diluted with saline): 126 % of control
- T/C (dose: 1000.0 mg/kg/injection, schedule: Q07DX Z (ip), vehicle: alkali diluted with saline): 131 % of control
- T/C (dose: 1280.0 mg/kg/injection, schedule: Q01DX001 (ip), vehicle: alkali diluted with saline): 126 % of control
- T/C (dose: 1600.0 mg/kg/injection, schedule: Q01DX001 (ip), vehicle: olive oil, sesame oil, peanut oil): 126 and 127 % of control [5 of 6 alive]
- T/C (dose: 1600.0 mg/kg/injection, schedule: Q01DX001 (sc), vehicle: other): 148 % of control [9 of 10 alive]
